Publication PMC10716476
These are yes or no findings as the source states them, for the method shown. For some assays here: Sequences can lack the tags named with a protein.

B1: HVO_0758 (zinc finger μ-protein from Haloferax volcanii), heterologously produced (protein, UniProt D4GTQ1 1-56)
chain: MKTTRKGLRDGELEKDTYGRLTCSECGESLKKKNDPDEVFSVRICADCGREWKELR
B2: HVO_0758 with hexahistidine tag, homologously produced (protein, UniProt D4GTQ1 1-56)
chain: MKTTRKGLRDGELEKDTYGRLTCSECGESLKKKNDPDEVFSVRICADCGREWKELR

Assays:
[1] = target: HVO_0758 (zinc finger μ-protein from Haloferax volcanii), heterologously produced (Haloferax volcanii) (UniProt D4GTQ1); assay: NMR relaxation (rotational correlation time); 15N-labelled sample, 600 MHz; 25 mM BisTris pH 7, 1 M NaCl, 5 mM 2-mercaptoethanol, 100 uM ZnCl2, 298 K; experimental tau-c (TENSOR2, from R1, R2, hetNOE) compared with tau-c calculated from the structure (Hydronmr); both purified
[2] = target: HVO_0758 with hexahistidine tag, homologously produced (Haloferax volcanii) (UniProt D4GTQ1); assay: SEC; preparative SEC of the nickel chelating eluate on SuperDex 75 Increase (10/30), 2.1 M NaCl, 20 mM HEPES pH 7.5, 0.4 mL/min; standard curve with aprotinin, RNAse A, ovalbumin, conalbumin; both purified

Row | Binder | binding [1] | binding [2]
1 | B1 | no binding | –
2 | B2 | – | no binding
